Data source: PubChem BioAssay AID652243 (Drosophila RNAi Screening Center, 2013)
Purpose: 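Fly regulators of androgen-dependent reporter output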 (primary screen). Cells: Drosophila S2R+ cells. Reagents: long dsRNA against Drosophila genes. Timing: 72 h (48 h, then 24 h hormone). Challenge: synthetic androgen R1881 at 10 nM for 24 h. Detection: 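Per-well raw luminescence of the androgen-driven firefly reporter and of the Renilla control, two replicates each, without normalisation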. Scale: firefly reporter light: higher = more light from androgen-responsive reporter; Renilla control light: higher = more constitutive control signal (cell number, transfection). Rule for the call: 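Across duplicate plates, a knock-down whose log firefly/Renilla ratio shifted a set fold down or up from the GFP/LacZ control mean was a hit; the downward cut appears as both 1.5 and 3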. Meaning of the calls: active = hit: reporter lowered or raised; inactive = no hit.
In all, the deposit lists about 24,000 reagents; this is a random part of those with a known target gene and a result. Over the whole deposit, 246 (1%) are marked active. 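Plates not normalised; calls are printed but the firefly/Renilla ratio behind them is not deposited; fold cut for lowering reported inconsistently.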 The raw values are shown without normalisation. Names joined by + are all predicted targets of the reagent. No sequences are given here. The record does not give: the amount of reagent.

The first 6 entries as a preview:
no.	predicted target	amplicon	firefly reporter light, replicate 1	firefly reporter light, replicate 2	Renilla control light, replicate 1	Renilla control light, replicate 2	call
1	CG8924 (GeneID 32557)	DRSC23027	7.71e5	8.56e5	1.66e6	1.67e6	inactive
2	pyr (GeneID 36255)	DRSC24993	4.97e5	3.12e5	4.78e5	4.45e5	inactive
3	CG31817 (GeneID 260659)	DRSC01537	1.60e5	1.38e5	4.59e5	5.43e5	inactive
4	CG31817 (GeneID 260659)	DRSC01538	3.25e5	4.04e5	2.53e6	3.08e6	inactive
5	CG31817 (GeneID 260659)	DRSC22476	4.18e5	9.28e5	5.99e5	8.48e5	inactive
6	Sec63 (GeneID 38819)	DRSC11002	2.23e5	2.74e5	2.18e6	1.88e6	inactive

Results, repeating the preview:
no.	predicted target	amplicon	firefly reporter light, replicate 1	firefly reporter light, replicate 2	Renilla control light, replicate 1	Renilla control light, replicate 2	call
1	CG8924 (GeneID 32557)	DRSC23027	7.71e5	8.56e5	1.66e6	1.67e6	inactive
2	pyr (GeneID 36255)	DRSC24993	4.97e5	3.12e5	4.78e5	4.45e5	inactive
3	CG31817 (GeneID 260659)	DRSC01537	1.60e5	1.38e5	4.59e5	5.43e5	inactive
4	CG31817 (GeneID 260659)	DRSC01538	3.25e5	4.04e5	2.53e6	3.08e6	inactive
5	CG31817 (GeneID 260659)	DRSC22476	4.18e5	9.28e5	5.99e5	8.48e5	inactive
6	Sec63 (GeneID 38819)	DRSC11002	2.23e5	2.74e5	2.18e6	1.88e6	inactive
7	CG13055 (GeneID 39779)	DRSC09936	1.36e5	1.47e5	1.80e6	1.43e6	inactive
8	CG13055 (GeneID 39779)	DRSC25640	7.80e5	1.22e6	9.34e5	8.52e5	inactive
9	CG13893 (GeneID 38074)	DRSC08363	45150	68094	7.47e5	6.83e5	inactive
10	Eip74EF (GeneID 39962)	DRSC11160	89522	36634	9.23e5	6.34e5	inactive
11	Eip74EF (GeneID 39962)	DRSC23794	8.83e5	5.70e5	8.90e5	6.06e5	inactive
12	CG32280 (GeneID 317952)	DRSC08024	1.53e5	1.69e5	3.08e5	3.00e5	inactive
13	Ent3 (GeneID 39461)	DRSC09822	6.61e5	4.67e5	1.74e6	9.98e5	inactive
14	Ent3 (GeneID 39461)	DRSC29706	4.50e5	4.01e5	1.92e6	1.62e6	inactive
15	flz (GeneID 35902)	DRSC07109	3.02e5	2.26e5	2.45e6	1.94e6	active
16	CG31459 (GeneID 318746)	DRSC13380	1.91e5	2.36e5	3.29e5	4.59e5	inactive
17	CG13314 (GeneID 39030)	DRSC09985	1.72e5	1.18e5	1.62e6	1.08e6	inactive
18	Hydr1 (GeneID 35930)	DRSC07063	5.32e5	5.16e5	3.18e6	3.71e6	inactive
19	RpL21 (GeneID 35453)	DRSC03704	1.54e5	2.60e5	1.04e6	1.08e6	inactive
20	EMC2B + EMC2A	DRSC15241	1.97e5	2.17e5	3.67e6	3.23e6	inactive
21	CG4820 (GeneID 41344)	DRSC15654	83367	1.67e5	1.31e6	2.28e6	inactive
22	CG31115 (GeneID 318597)	DRSC13692	82500	1.33e5	1.09e5	1.55e5	inactive
23	CG31115 (GeneID 318597)	DRSC26097	3.28e5	2.99e5	6.95e5	6.64e5	inactive
24	Rpn5 (GeneID 40717)	DRSC12367	31006	49204	2.26e5	2.00e5	inactive
25	Rpn5 (GeneID 40717)	DRSC28279	3.89e5	6.56e5	8.11e5	1.25e6	inactive
26	Nt5b (GeneID 32822)	DRSC19976	83392	64336	3.40e5	4.34e5	inactive
27	Nt5b (GeneID 32822)	DRSC19977	3.87e5	4.19e5	3.01e6	2.84e6	inactive
28	Nt5b (GeneID 32822)	DRSC19978	6.14e5	5.50e5	4.24e6	3.67e6	inactive
29	Nt5b (GeneID 32822)	DRSC22588	8.71e5	8.24e5	1.24e6	1.39e6	inactive
30	Nt5b (GeneID 32822)	DRSC28223	5.02e5	5.37e5	1.16e6	1.48e6	inactive
31	sn (GeneID 31717)	DRSC18834	1.67e5	2.33e5	2.12e6	2.24e6	inactive
32	sn (GeneID 31717)	DRSC28327	3.80e5	6.23e5	7.91e5	9.91e5	inactive
33	veli (GeneID 43003)	DRSC16276	1.70e5	2.44e5	1.76e6	2.53e6	inactive
34	veli (GeneID 43003)	DRSC27872	7.18e5	4.12e5	2.68e6	1.48e6	inactive
35	CG10657 (GeneID 39423)	DRSC09768	2.95e5	3.16e5	1.79e6	1.42e6	inactive
36	CG10657 (GeneID 39423)	DRSC27483	4.40e5	3.60e5	6.52e5	4.63e5	inactive
37	stas (GeneID 32737)	DRSC20104	1.44e5	79837	1.08e6	8.32e5	inactive
38	Nhe3 (GeneID 33939)	DRSC03380	1.92e5	1.93e5	2.21e6	1.91e6	inactive
39	Cpr67Fa2 (GeneID 39224)	DRSC10315	3.41e5	2.86e5	4.18e6	3.54e6	inactive
40	CG17919 (GeneID 40780)	DRSC12571	19985	73736	2.93e5	2.96e5	inactive
41	CG17919 (GeneID 40780)	DRSC27860	4.39e5	2.37e5	2.19e6	1.20e6	inactive
42	NijC (GeneID 41568)	DRSC14851	78802	1.32e5	1.77e6	1.82e6	inactive
43	NijC (GeneID 41568)	DRSC29054	5.53e5	5.29e5	1.73e6	1.17e6	inactive
44	Cep135 (GeneID 39647)	DRSC09345	2.18e5	72860	2.03e5	90784	inactive
45	Cep135 (GeneID 39647)	DRSC10244	1.08e6	1.01e6	2.05e6	1.62e6	inactive
46	CG5196 (GeneID 41522)	DRSC15735	1.98e5	1.79e5	2.25e6	2.01e6	inactive
47	CG5196 (GeneID 41522)	DRSC26959	3.42e5	3.13e5	5.89e5	4.27e5	inactive
48	CG3906 (GeneID 37721)	DRSC04431	6.79e5	7.57e5	1.26e6	1.29e6	inactive
49	CG3906 (GeneID 37721)	DRSC27931	5.35e5	5.90e5	9.14e5	7.67e5	inactive
50	CG33725 (GeneID 3772600)	DRSC38844	2.10e6	1.73e6	2.90e6	2.34e6	inactive
51	PAPLA1 (GeneID 34109)	DRSC03095	3.77e5	5.74e5	1.39e6	1.91e6	inactive
52	PAPLA1 (GeneID 34109)	DRSC03096	1.79e5	2.28e5	1.54e6	1.50e6	inactive
53	rg (GeneID 44531)	DRSC17726	90959	50890	5.76e5	4.46e5	inactive
54	rg (GeneID 44531)	DRSC18049	3.26e5	2.82e5	2.45e6	2.33e6	inactive
55	rg (GeneID 44531)	DRSC29144	6.52e5	6.08e5	1.24e6	1.11e6	inactive
56	rg (GeneID 44531)	DRSC36613					inactive
57	rg (GeneID 44531)	DRSC36614					inactive
58	CG10431 (GeneID 35157)	DRSC02055	1.66e5	1.76e5	1.84e6	2.00e6	inactive
